According to paper PMC7317872:
Results are given in words; binding and its absence hold for the method and conditions named. Some binding calls cover weakened binding; strength is not graded here.

Biological target: T1, Cdh23 EC1-2 (WT) (mouse) (UniProt Q99PF4)
T1 sequence: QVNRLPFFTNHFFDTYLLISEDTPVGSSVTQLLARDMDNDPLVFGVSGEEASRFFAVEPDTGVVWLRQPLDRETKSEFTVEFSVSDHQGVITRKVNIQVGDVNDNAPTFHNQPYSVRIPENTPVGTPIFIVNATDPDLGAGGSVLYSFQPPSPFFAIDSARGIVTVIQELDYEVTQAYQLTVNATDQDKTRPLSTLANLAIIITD
Assay: live-cell binding to protein-coated surface; protein anchored by its C terminus to glass (sortagging); 10^4 live A549 cells, 2 h, 2 mM Ca2+ buffer, washed; cells counted from images and by MTT; only the target purified

Substance: Cdh23 (full-length, variant-1) on A549 cells (from UniProt Q9H251 24-3354)
- binding: binds
